In patent US11260062B2, “Pharmaceutical composition for treatment of lung cancer comprising glucocorticoid-based compound” (AJOU UNIVERSITY INDUSTRY-ACADEMIC COOPERATION FOUNDATION, priority 2015, dated 2022):
For at least one compound, name, drawing or mass did not settle the structure.

Test system: A549-luc-C8 cells
Test: Xenograft assay with A549 cell line, tumor volume
Assay type: in vivo, Balb/c-nu mice
Settings: 1 mpk intraperitoneally daily (5 days per week), 40 days

Structure (SMILES): CO[C@H]1C[C@@H]2CC[C@@H](C)[C@@](O)(O2)C(=O)C(=O)N2CCCC[C@H]2C(=O)O[C@H]([C@H](C)C[C@@H]2CC[C@@H](O)[C@H](OC)C2)CC(=O)[C@H](C)/C=C(\C)[C@@H](O)[C@@H](OC)C(=O)[C@H](C)C[C@H](C)/C=C/C=C/C=C/1C [rapamycin]
- anticancer effect (tumor volume): distinct anticancer effect
